The AC50 is the midpoint of the concentration-response curve, whichever way the signal moves.

This is one part of the list. The main result of the screen is listed elsewhere. These columns were measured beside it and carry no call. Compounds called inactive in the main read-out are mostly missing here. The note in brackets gives the kind of curve behind each potency; many fits are weak.

Consider 62 molecules from PubChem BioAssay AID493014 (National Center for Advancing Translational Sciences (NCATS), 2011).

The assay is described as follows: qHTS Assay to Find Inhibitors of Chronic Active B-Cell Receptor Signaling. Particulars: ABC-DLBCL IkBa-CBG/CBR reporter, luminescence ratio (green luciferase fused to IkBa over red control in TMD8 lymphoma cells), 4 h. In a few lines: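 Doxycycline induced both beetle luciferases in TMD8 lymphoma cells; IKK-driven degradation limits the IkappaBalpha-fused green signal, while red luminescence normalises for cell number and nonspecific effects. Compounds tested up to 46 uM, 4 hrs.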

[1] abbreviates: measured here: CBR red luminescence, cell number.
[2] abbreviates: measured here: IkBa-CBG green luminescence.

As to `O=c1oc2cccnc2n1CCS(=O)(=O)c1ccc(F)cc1`, the AC50 under setting [1] is 7.08 µM [falling, partial curve].

Consider `Cc1ccc(NC(=O)c2cc(S(=O)(=O)NC3CCCCC3)ccc2F)cc1Cl`, for which the AC50 under setting [1] was 6.31 µM [falling, partial curve, poor fit].

With `O=C1c2ccccc2NC(c2ccc(-c3cccc([N+](=O)[O-])c3)o2)N1O` (configuration not stated), under setting [1], the AC50 was 8.2 µM [falling, partial curve].

As for `COC(=O)C1CCN(CC(=O)Nc2ccc3c(c2)OCCO3)CC1`, the AC50 under setting [1] was 29.1 µM [rising, single point].

As for `O=C(CSc1ncn(-c2ccccc2)n1)Nc1nc2ccccc2s1`, under setting [1], the AC50 is 0.13 µM [rising, full curve, poor fit].

With `C[N+]12CCCCC1[C@@H](CO)CCC2` (some centres not stated), under setting [1], the AC50 was 0.1 µM [rising, full curve, poor fit].

In the case of `COc1ccc(CNc2nc3ccccc3s2)cc1OC`, under setting [1], the AC50 is 2.82 µM [rising, full curve, poor fit].

`CC(=O)Nc1cccc(/C(C)=N\NC(=O)c2ccc(Cn3nc([N+](=O)[O-])c(Cl)c3C)o2)c1`: the AC50 under setting [1] was 23.1 µM [falling, single point].

Take `O=C(CSc1cccc[n+]1[O-])Nc1cccc(Oc2ccccc2)c1`: the AC50 under setting [1] was 11.2 µM [falling, single point].

Turning to `O=C(Nc1cc(N2CCOCC2)ncn1)NC1(C(F)(F)F)Oc2ccc(Cl)cc2O1` (configuration not stated), the AC50 under setting [1] is 9.2 µM [falling, partial curve, poor fit].

In the case of `Cc1ccc(NC(=O)CSc2nc(=O)n(Cc3ccco3)c3c2CCC3)cc1F`, under setting [1], the AC50 is 15.8 µM [falling, single point].

Consider `COc1cccc(Oc2ccc(C(F)(F)F)cc2NC(=O)CN2C(=O)NC3(CCCC3)C2=O)c1`, for which, under setting [1], the AC50 was 4.11 µM [rising, single point].

Take `COc1cc([N+](=O)[O-])cc(/C=N/NC(=O)C(C)Nc2ccccc2C)c1O` (configuration not stated): the AC50 is 16.4 µM [falling, single point] under setting [1] and 18.4 µM [rising, partial curve, poor fit] under setting [2].

Consider `COc1ccc(CCNC(=O)CN2c3cccc4cccc(c34)S2(=O)=O)cc1OC`, for which the AC50 under setting [1] is 2.24 µM [rising, full curve, poor fit].

Consider `Nc1c(C(=O)O)cnn1-c1ccccc1`, for which the AC50 under setting [1] was 0.1 µM [rising, full curve, poor fit].

As to `CC(C)(C)NC(=O)CN(C(=O)c1csnn1)c1ccccc1-c1ccccc1`, the AC50 under setting [1] is 35.5 µM [rising, partial curve, poor fit].

For the molecule `Cc1nc(/N=C(\N)Nc2ccccc2)nc2ccccc12`, under setting [1], the AC50 was 0.0891 µM [falling, full curve, poor fit].

As to `CCc1nnc(NS(=O)(=O)c2ccc(N/C=C/C(=O)c3ccc(C)cc3)cc2)s1`, the AC50 under setting [1] was 13 µM [rising, partial curve, poor fit].

As to `COc1ccc(CS(=O)(=O)/C(Cl)=C(/Cl)C(=O)Nc2ccc(OC)nc2)cc1`, the AC50 under setting [1] was 1.03 µM [falling, full curve, poor fit] and the AC50 under setting [2] was 0.82 µM [rising, full curve, poor fit].

As for `C/C(CC(=O)NCCN1CCOCC1)=N\NC(=O)c1ccncc1`, under setting [1], the AC50 is 6.31 µM [falling, partial curve, poor fit].

On to `CC1C(=O)NN=C1C(=O)N/N=C\C(Br)=C\c1ccccc1` (configuration not stated), for which the AC50 under setting [1] was 0.631 µM [falling, full curve, poor fit].

For `COc1ccc(NC(=O)CN2CCCCC2)cc1`, the AC50 was 1.3 µM [falling, full curve, poor fit] under setting [1] and 1.16 µM [rising, full curve, poor fit] under setting [2].

`C/C=C\C=C/C(=O)Nc1cccc(C2=NOC3(C2)C[C@@H](C(N)=O)N(C(=O)COc2ccc(Cl)cc2)C3)c1` (some centres not stated): the AC50 under setting [1] was 20 µM [falling, single point].

In the case of `CCOC(=O)CCCNC(=O)c1cncc(Br)c1`, under setting [1], the concentration at half-maximal activity (AC50) is 7.08 µM [falling, partial curve, poor fit].

Regarding `CCCCSc1nnc(-c2ccccc2NC(C)=O)c(=O)[nH]1`, under setting [1], the AC50 is 35.5 µM [falling, single point].

Regarding `O=C1C(Cl)=C(NCCN2CCOCC2)C(=O)c2ccccc21`, the AC50 under setting [1] was 35.5 µM [falling, single point].

With `CCOC(=O)N/N=C(\CCC(=O)O)c1cccs1`, under setting [1], the AC50 was 35.5 µM [falling, single point].

As to `O=C(/C=C/c1cccc([N+](=O)[O-])c1)NCCSCc1c(Cl)cccc1Cl`, the AC50 under setting [1] is 2.31 µM [rising, partial curve].

For the molecule `COc1ccc(Cn2c(C(C)C)nc3sc4ccccc4c(=O)c3c2=O)cc1`, the AC50 under setting [1] was 7.94 µM [rising, partial curve].

Regarding `Cc1cc(=O)oc2cc(OCC(=O)NC3CCCCC3)ccc12`, the AC50 under setting [1] was 1.41 µM [rising, full curve, poor fit].

Consider `C/C(=N\NC(=O)c1ccc(Cl)cc1)c1ccccn1`, for which the AC50 by setting is: under setting [1], 35.5 µM [falling, single point]; under setting [2], 12.6 µM [falling, partial curve, poor fit].

Turning to `COc1ccc(N(C(=O)CCl)C(C(=O)NC2CCCCC2)c2cccnc2)cc1` (configuration not stated), under setting [1], the AC50 is 5.8 µM [falling, partial curve, poor fit].

On to `O=C(NC1=NCCS1)c1cccc(N2C(=O)c3ccccc3C2=O)c1`, for which, under setting [1], the AC50 was 6.31 µM [rising, single point].

In the case of `CCc1ccc(CNCc2ccc(F)cc2)cc1`, under setting [1], the AC50 is 20.6 µM [rising, single point].

Regarding `CCC(C)Sc1cccc(-c2nc3ccccn3c2NCc2ccccc2)c1` (configuration not stated), the AC50 under setting [1] was 29.1 µM [falling, single point].

Take `CSc1ncccc1C(=O)OCC(=O)N(C)C1CCS(=O)(=O)C1` (configuration not stated): the AC50 under setting [1] is 32.6 µM [falling, single point].

On to `CN(C)S(=O)(=O)c1ccc(NC(=O)CN2CCCC2c2ccc3c(c2)OCCCO3)cc1` (configuration not stated), for which, under setting [1], the AC50 is 2.06 µM [rising, full curve, poor fit].

As to `CC1CN(C(=O)CN2C(=O)NC3(CCCC3)C2=O)C(=Nc2cccc(S(=O)(=O)N(C)C)c2)S1` (configuration not stated), the AC50 under setting [1] was 29.1 µM [rising, single point].

`Cc1cccc(NNC(=S)Nc2c(C)cccc2C)c1`: the concentration at half-maximal activity (AC50) under setting [1] is 35.5 µM [falling, single point].

Regarding `CCOC(=O)C1=C(C)NC(C)=C(C(=O)OC)C1c1cccc([N+](=O)[O-])c1` (configuration not stated), under setting [1], the AC50 is 0.731 µM [rising, full curve, poor fit].

As to `Cc1nnc(SCCn2c(N3CCCCC3)nc3c2c(=O)[nH]c(=O)n3C)s1`, the AC50 under setting [1] is 29.1 µM [rising, single point].

Take `Nc1cc(OC(=O)c2c(F)cccc2Cl)nn1S(=O)(=O)c1ccccc1`: the AC50 under setting [1] is 11.2 µM [falling, partial curve, poor fit].

For the molecule `Cc1ccc(NC(=S)NC2CCCC2)cc1C`, under setting [1], the AC50 is 23.1 µM [falling, single point].

`N=c1c(S(=O)(=O)c2ccccc2)cc2c(=O)n3ccccc3nc2n1C1CCCC1`: the AC50 under setting [1] is 1.26 µM [rising, full curve, poor fit].

Regarding `O=C(c1ccc(C(=O)N2CCCCCC2)cc1)N1CCCCCC1`, the AC50 under setting [1] was 0.0651 µM [falling, full curve, poor fit].

In the case of `O=C(CCCOc1ccc(Cl)cc1Cl)Nc1ccccn1`, under setting [1], the AC50 was 3.98 µM [rising, full curve, poor fit].

With `CC(C)c1ccccc1NC(=O)COc1ccc(C(=O)NCCc2ccccc2)cc1`, the AC50 under setting [1] is 1.16 µM [rising, full curve].

`O=C(O)CCCN1C(=O)/C(=C\c2ccc(-c3nc4ccccc4s3)o2)SC1=S`: the AC50 under setting [1] was 11.2 µM [falling, partial curve, poor fit].

Turning to `O=C(Nc1ccc(Br)cc1)Nc1ccccc1F`, under setting [1], the concentration at half-maximal activity (AC50) is 8.91 µM [falling, partial curve].

For the molecule `CCC1(c2ccccc2)NC(=O)N(CC(=O)Nc2cc(Cl)ccc2N2CCOCC2)C1=O` (configuration not stated), the AC50 under setting [1] is 18.4 µM [falling, single point].

As to `CSc1nc(SCCN(C)C)c2c3c(sc2n1)COC(C)(C)C3`, under setting [1], the half-maximal activity concentration (AC50) was 3.16 µM [rising, single point].

On to `NC(=O)c1ccsc1NC(=O)c1nc(-c2ccccc2)n(-c2ccccc2)n1`, for which the AC50 under setting [1] was 25.1 µM [falling, single point].

Regarding `Cc1cc(C(=O)OCC(=O)N2CCCC2)c2ccccc2n1`, the AC50 under setting [1] is 0.82 µM [rising, partial curve, poor fit].

With `N#Cc1c(Nc2ccccc2C(F)(F)F)s[nH]c1=O`, under setting [1], the AC50 is 25.1 µM [falling, single point].

In the case of `O=C1O[C@@H](c2ccc(O)cc2)Cc2cccc(O)c21`, under setting [1], the AC50 is 18.4 µM [rising, partial curve].

Turning to `O=C(N/N=C/c1c[nH]c2ccccc12)C1CC1(c1ccccc1)c1ccccc1` (configuration not stated), the AC50 was 13 µM [falling, partial curve] under setting [1] and 25.9 µM [rising, partial curve, poor fit] under setting [2].

With `Cc1cccnc1NC(=O)C1CCCN(S(=O)(=O)c2ccc3c(c2)oc(=O)n3C)C1` (configuration not stated), the AC50 under setting [1] was 32.6 µM [rising, single point].

Turning to `COc1cccc(N2CCN(C(=O)CCCCCn3c(=O)[nH]c4ccccc4c3=O)CC2)c1`, the AC50 under setting [1] was 35.5 µM [falling, single point].

`CN(C)S(=O)(=O)c1ccc(C(=O)Nc2ccc(F)cc2F)cc1`: under setting [1], the AC50 was 4.61 µM [rising, single point].

Take `Cc1ccc(/C=N/NC(=O)c2cc3ccccc3cc2O)o1`: the AC50 under setting [1] is 3.55 µM [falling, full curve].

Regarding `Cc1cccc(C(=O)N2CC(=O)Nc3ccc(F)cc3C2c2ccc(F)cc2)c1` (configuration not stated), the AC50 under setting [1] was 6.31 µM [rising, single point].

Consider `CCCCOC(=O)Nc1sc2c(c1C(=O)OC)CCC2`, for which, under setting [1], the AC50 was 6.31 µM [rising, full curve, poor fit].
